Consider one molecule from publication PMC12705663.

Amino acid sequences for entries named in this document (tags omitted). A change or cut given only in a name is not applied to a line headed by its entry. Chains listed by the source or under a name are the forms on record and can include a tag or linker.
FGFR1 N546K/R661P-BirA*-Flag (P11362, form named): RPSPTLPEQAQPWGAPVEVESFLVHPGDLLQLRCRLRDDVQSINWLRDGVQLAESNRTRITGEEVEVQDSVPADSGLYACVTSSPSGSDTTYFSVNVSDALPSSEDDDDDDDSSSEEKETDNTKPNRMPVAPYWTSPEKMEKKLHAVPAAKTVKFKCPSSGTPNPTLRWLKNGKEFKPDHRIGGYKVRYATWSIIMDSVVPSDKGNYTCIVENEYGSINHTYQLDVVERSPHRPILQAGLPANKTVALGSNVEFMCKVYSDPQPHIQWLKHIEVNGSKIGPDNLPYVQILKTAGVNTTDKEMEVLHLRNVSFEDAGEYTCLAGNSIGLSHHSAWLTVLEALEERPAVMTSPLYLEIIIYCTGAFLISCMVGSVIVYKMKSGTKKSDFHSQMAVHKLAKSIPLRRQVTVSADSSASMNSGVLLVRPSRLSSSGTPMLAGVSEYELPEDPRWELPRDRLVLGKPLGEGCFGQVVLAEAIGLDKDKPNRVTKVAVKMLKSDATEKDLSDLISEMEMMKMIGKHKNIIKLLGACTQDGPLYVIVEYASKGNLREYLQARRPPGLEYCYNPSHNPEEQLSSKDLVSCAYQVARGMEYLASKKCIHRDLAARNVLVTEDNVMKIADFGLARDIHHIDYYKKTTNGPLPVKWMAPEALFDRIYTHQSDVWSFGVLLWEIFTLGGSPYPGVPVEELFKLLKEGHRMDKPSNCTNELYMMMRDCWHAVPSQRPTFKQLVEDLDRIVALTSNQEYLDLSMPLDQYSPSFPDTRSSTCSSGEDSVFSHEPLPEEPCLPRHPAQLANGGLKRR
FGFR1 N546K-BirA*-Flag (P11362, form named): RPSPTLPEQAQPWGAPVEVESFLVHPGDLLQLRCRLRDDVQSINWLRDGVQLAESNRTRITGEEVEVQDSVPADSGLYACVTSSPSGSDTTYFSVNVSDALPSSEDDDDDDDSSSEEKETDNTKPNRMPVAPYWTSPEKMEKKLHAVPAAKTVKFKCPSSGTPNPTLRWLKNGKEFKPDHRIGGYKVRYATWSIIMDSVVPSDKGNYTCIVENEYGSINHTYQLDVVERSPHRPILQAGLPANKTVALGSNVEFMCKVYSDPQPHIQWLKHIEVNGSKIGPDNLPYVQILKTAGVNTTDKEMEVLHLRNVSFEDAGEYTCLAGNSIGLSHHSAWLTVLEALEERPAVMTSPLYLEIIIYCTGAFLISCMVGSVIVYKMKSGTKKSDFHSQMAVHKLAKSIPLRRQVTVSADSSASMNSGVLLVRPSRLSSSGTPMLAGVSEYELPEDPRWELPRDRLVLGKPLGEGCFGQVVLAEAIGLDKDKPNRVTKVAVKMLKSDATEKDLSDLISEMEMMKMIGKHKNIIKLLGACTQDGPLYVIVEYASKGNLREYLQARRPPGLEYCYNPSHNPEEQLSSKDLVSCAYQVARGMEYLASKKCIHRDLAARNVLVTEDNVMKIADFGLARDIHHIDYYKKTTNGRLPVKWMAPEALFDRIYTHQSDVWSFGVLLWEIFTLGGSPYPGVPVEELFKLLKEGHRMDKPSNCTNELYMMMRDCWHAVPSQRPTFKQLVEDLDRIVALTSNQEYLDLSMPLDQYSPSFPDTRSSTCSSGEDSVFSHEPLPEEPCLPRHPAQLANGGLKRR

In assay [1] the target is FGFR1 N546K/R661P-BirA*-Flag (human) (UniProt P11362). In words: co-IP; anti-FLAG antibody on Protein G Mag Sepharose beads, lysates of T-REx HEK293 stable cell lines (IP lysis buffer with 1% NP-40, 150 mM NaCl), overnight at 4 °C; blots for total and phosphorylated FGFR1 and PLCγ.
For assay [2], the target named is FGFR1 N546K-BirA*-Flag (human) (UniProt P11362). The assay is described as above.

Results are given in words; binding and its absence hold for the method and conditions named. In cells and extracts the contact can be indirect. Some results given as binding are weak or reduced against the parent protein; the word gives no strength.

B1: phospholipase C gamma 1 (enzyme, UniProt P19174 1-1290)
chain: MAGAASPCANGCGPGAPSDAEVLHLCRSLEVGTVMTLFYSKKSQRPERKTFQVKLETRQITWSRGADKIEGAIDIREIKEIRPGKTSRDFDRYQEDPAFRPDQSHCFVILYGMEFRLKTLSLQATSEDEVNMWIKGLTWLMEDTLQAPTPLQIERWLRKQFYSVDRNREDRISAKDLKNMLSQVNYRVPNMRFLRERLTDLEQRSGDITYGQFAQLYRSLMYSAQKTMDLPFLEASTLRAGERPELCRVSLPEFQQFLLDYQGELWAVDRLQVQEFMLSFLRDPLREIEEPYFFLDEFVTFLFSKENSVWNSQLDAVCPDTMNNPLSHYWISSSHNTYLTGDQFSSESSLEAYARCLRMGCRCIELDCWDGPDGMPVIYHGHTLTTKIKFSDVLHTIKEHAFVASEYPVILSIEDHCSIAQQRNMAQYFKKVLGDTLLTKPVEISADGLPSPNQLKRKILIKHKKLAEGSAYEEVPTSMMYSENDISNSIKNGILYLEDPVNHEWYPHYFVLTSSKIYYSEETSSDQGNEDEEEPKEVSSSTELHSNEKWFHGKLGAGRDGRHIAERLLTEYCIETGAPDGSFLVRESETFVGDYTLSFWRNGKVQHCRIHSRQDAGTPKFFLTDNLVFDSLYDLITHYQQVPLRCNEFEMRLSEPVPQTNAHESKEWYHASLTRAQAEHMLMRVPRDGAFLVRKRNEPNSYAISFRAEGKIKHCRVQQEGQTVMLGNSEFDSLVDLISYYEKHPLYRKMKLRYPINEEALEKIGTAEPDYGALYEGRNPGFYVEANPMPTFKCAVKALFDYKAQREDELTFIKSAIIQNVEKQEGGWWRGDYGGKKQLWFPSNYVEEMVNPVALEPEREHLDENSPLGDLLRGVLDVPACQIAIRPEGKNNRLFVFSISMASVAHWSLDVAADSQEELQDWVKKIREVAQTADARLTEGKIMERRKKIALELSELVVYCRPVPFDEEKIGTERACYRDMSSFPETKAEKYVNKAKGKKFLQYNRLQLSRIYPKGQRLDSSNYDPLPMWICGSQLVALNFQTPDKPMQMNQALFMTGRHCGYVLQPSTMRDEAFDPFDKSSLRGLEPCAISIEVLGARHLPKNGRGIVCPFVEIEVAGAEYDSTKQKTEFVVDNGLNPVWPAKPFHFQISNPEFAFLRFVVYEEDMFSDQNFLAQATFPVKGLKTGYRAVPLKNNYSEDLELASLLIKIDIFPAKENGDLSPFSGTSLRERGSDASGQLFHGRAREGSFESRYQQPFEDFRISQEHLADHFDSRERRAPRRTRVNGDNRL
With B1, the binding entry in assay [1] and in assay [2] was “binds” throughout.
